Values quoted from earlier work as cited in US20110245283A1, “Methods for predicting the response to statins” (priority 2009, published 2011).
Like-named read-outs stand apart in the source and are kept apart here.

Conditions: cited from earlier work

Structure (SMILES): CCCCc1oc2ccccc2c1C(=O)c1cc(I)c(OCCN(CC)CC)c(I)c1 [Amiodarone]
- Increased risk of toxicity or reduced statin effectiveness (with Lova): (+)
- Increased risk of toxicity or reduced statin effectiveness (with Simva): (+)
